# According to BindingDB's records for doi:10.7270/Q28S4TSS (D3R/Abbott, 2020):
# The chains behind the UniProt entries cited, without tags or fusion partners. Where a name states a change or a piece, a line headed by the entry shows the natural chain unless it says otherwise.
# UniProt O60674: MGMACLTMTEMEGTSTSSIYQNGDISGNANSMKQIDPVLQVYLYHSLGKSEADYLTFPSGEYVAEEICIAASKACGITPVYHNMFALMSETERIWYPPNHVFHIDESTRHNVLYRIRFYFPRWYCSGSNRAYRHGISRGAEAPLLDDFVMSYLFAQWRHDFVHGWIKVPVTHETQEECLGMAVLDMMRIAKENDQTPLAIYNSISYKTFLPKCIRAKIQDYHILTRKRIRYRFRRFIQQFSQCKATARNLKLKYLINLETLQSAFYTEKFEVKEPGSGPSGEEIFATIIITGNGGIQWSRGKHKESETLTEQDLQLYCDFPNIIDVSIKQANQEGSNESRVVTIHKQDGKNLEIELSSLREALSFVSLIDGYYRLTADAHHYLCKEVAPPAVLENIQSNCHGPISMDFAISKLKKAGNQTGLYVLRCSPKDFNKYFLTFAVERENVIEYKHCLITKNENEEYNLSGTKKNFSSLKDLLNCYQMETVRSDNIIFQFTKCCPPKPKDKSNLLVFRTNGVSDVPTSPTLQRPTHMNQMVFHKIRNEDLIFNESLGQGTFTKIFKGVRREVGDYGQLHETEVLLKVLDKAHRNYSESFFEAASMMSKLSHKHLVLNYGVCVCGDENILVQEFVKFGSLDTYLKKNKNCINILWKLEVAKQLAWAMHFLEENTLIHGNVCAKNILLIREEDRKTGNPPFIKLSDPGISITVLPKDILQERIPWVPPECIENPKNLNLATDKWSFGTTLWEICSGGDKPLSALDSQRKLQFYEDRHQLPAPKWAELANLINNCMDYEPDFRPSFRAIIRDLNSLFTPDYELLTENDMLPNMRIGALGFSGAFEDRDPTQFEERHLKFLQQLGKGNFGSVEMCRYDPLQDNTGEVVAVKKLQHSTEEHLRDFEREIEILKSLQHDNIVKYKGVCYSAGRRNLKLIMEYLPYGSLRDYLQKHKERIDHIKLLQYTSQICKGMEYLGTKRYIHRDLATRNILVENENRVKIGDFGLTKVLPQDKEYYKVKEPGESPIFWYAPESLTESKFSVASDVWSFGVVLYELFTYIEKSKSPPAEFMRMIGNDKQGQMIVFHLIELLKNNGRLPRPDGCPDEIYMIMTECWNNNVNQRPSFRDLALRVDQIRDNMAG
# Biological target: Tyrosine-protein kinase JAK2 (Homo sapiens, UniProt O60674)
row,Structure (SMILES),Kd
1,"Cc1cc(C)cc(Oc2nccc(-c3c(-c4ccc(F)cc4)ncn3C3CCNCC3)n2)c1 [2-(3,5-Dimethyl-phenoxy)-4-[5-(4-fluoro-phenyl)-3-piperidin-4-yl-3H-imidazol-4-yl]-pyrimidine]",10 µM
2,CS(=O)(=O)c1ccccc1-c1nc(-c2ccc(F)cc2)c(-c2ccncc2)[nH]1 [D3RKN_30],10 µM
3,O=C(O)c1ccc(-c2nc(-c3ccc(F)cc3)c(-c3ccncc3)[nH]2)cc1 [D3RKN_53],10 µM
